These are yes or no findings as the source states them, for the method shown. For some assays here: Binding seen in cells or lysates may run through a third protein. Some results given as binding are weak or reduced against the parent protein; the word gives no strength.

Protein sequences, listed by entry. Tags and fused reporters are not part of them. Residues count along the entry.
UniProt P63166, residues 1-97: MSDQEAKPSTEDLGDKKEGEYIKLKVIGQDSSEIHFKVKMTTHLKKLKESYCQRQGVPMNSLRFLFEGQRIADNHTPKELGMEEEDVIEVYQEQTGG
UniProt Q5I0H3, residues 1-97: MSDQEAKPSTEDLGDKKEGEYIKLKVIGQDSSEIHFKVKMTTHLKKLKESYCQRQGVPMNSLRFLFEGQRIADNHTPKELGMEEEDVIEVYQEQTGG
UniProt P63165, residues 1-97: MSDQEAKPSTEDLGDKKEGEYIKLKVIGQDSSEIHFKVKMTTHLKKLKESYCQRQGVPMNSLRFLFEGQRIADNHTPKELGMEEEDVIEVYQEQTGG
UniProt Q9EQU5: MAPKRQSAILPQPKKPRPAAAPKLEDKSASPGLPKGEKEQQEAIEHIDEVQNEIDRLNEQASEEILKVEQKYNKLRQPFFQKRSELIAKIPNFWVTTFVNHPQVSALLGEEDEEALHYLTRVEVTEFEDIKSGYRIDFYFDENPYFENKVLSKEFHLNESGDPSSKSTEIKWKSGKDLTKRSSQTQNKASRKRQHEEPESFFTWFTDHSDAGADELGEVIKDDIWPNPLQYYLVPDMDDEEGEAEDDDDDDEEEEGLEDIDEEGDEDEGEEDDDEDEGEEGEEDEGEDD
UniProt Q63945: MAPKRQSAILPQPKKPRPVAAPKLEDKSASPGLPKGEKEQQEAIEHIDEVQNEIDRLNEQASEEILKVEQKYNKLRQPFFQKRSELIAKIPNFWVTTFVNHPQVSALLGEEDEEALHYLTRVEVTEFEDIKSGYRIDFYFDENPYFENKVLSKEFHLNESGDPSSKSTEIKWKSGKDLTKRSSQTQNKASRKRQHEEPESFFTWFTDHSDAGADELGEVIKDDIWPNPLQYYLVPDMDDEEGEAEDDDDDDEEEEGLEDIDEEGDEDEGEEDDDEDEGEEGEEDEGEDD
UniProt Q01105: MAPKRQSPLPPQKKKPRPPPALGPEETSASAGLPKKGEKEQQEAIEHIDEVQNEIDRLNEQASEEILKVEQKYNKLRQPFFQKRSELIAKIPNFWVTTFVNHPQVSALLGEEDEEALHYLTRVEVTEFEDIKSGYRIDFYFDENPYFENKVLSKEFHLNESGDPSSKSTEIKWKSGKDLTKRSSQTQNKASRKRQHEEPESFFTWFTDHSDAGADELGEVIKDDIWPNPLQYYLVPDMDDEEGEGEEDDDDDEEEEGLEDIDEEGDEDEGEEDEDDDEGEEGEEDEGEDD

The results in this text go back to paper PMC6376727.

Assay [1] deals with endogenous SUMO-1 (mouse hippocampus) (mouse (endogenous in hippocampus)) (UniProt P63166). The experiment in a line: co-IP; hippocampal homogenates of 129 or C57 control mice and of 3xTg AD, h-Tau and APP/PS1 mice; precipitated with anti-SUMO-1, blotted with anti-SET; read as SUMOylation of SET.
Assay [2] concerns the target endogenous SUMO-1 (rat primary hippocampal neurons) (rat (endogenous in primary hippocampal neurons)) (UniProt Q5I0H3). The experiment in a line: co-IP; rat primary hippocampal neurons treated with the indicated concentrations of Abeta oligomers; lysate precipitated with anti-SUMO-1, blotted with anti-SET; band at 52 kDa.
The target of assay [3] is endogenous SUMO-1 (HEK-293T cells) (human (endogenous in HEK-293T)) (UniProt P63165). The experiment in a line: co-IP; HEK-293T co-transfected with Flag-SET-WT or Flag-SET-K68R and UBC9 for 48 h, endogenous SUMO-1; precipitated with anti-SUMO-1, blotted with anti-SET.
For assay [4] the target is unchanged. The experiment in a line: western blot of cell lysate (SUMO-1-conjugated band of Flag-SET); HEK-293T transfected with Flag-SET WT or K14R, K36R, K39R, K68R in the presence of UBC9; lysate blotted with anti-Flag; no precipitation. Background: In western blotting, separated proteins are transferred to a membrane and probed.
Another assay concerns the target His-SUMO-1 (UniProt P63165). The experiment in a line: co-IP; HEK-293T co-transfected with Flag-SET (WT or K68R), His-SUMO-1 and UBC9 for 48 h; RIPA lysate; precipitated with anti-SUMO-1, blotted with anti-Flag; the band is at 52 kDa (covalent SET-SUMO-1 conjugate).

“endogenous SET (mouse hippocampus) (from UniProt Q9EQU5 1-289)”: the binding entry in assay [1] is given as “binds”. For “endogenous SET (rat primary hippocampal neurons) (from UniProt Q63945 1-289)”, in assay [2], the binding result was “binds”. As for Flag-SET-WT (from UniProt Q01105 1-290), the binding result (in assay [3]; in assay [4]; with His-SUMO-1) was “binds” each time.
